Laboratory results reported in US20150004178A1.
These are yes or no findings as the source states them, for the method shown. Some binding calls cover weakened binding; strength is not graded here.

Amino acid sequences for entries named in this document (tags omitted). Residues count along the entry.
UniProt Q8TDQ0, residues 22-200: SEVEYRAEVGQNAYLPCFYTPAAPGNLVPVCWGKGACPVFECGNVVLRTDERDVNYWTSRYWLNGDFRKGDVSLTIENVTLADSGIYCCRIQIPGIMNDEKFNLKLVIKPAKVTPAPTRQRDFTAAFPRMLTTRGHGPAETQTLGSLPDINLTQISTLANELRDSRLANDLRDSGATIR
UniProt Q8NHL6, residues 24-458: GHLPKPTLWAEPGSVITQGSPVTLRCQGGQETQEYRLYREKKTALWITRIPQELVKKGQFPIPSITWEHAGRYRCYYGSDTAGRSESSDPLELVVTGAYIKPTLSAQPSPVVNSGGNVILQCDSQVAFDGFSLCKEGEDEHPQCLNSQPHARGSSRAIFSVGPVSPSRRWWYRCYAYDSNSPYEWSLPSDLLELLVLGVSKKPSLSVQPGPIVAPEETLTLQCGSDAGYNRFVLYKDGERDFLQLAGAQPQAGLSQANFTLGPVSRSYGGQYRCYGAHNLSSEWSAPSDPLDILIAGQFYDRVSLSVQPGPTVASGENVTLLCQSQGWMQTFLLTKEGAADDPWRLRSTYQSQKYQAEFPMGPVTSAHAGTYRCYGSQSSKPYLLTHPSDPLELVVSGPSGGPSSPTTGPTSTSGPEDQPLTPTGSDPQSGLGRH
UniProt Q8N423, residues 22-460: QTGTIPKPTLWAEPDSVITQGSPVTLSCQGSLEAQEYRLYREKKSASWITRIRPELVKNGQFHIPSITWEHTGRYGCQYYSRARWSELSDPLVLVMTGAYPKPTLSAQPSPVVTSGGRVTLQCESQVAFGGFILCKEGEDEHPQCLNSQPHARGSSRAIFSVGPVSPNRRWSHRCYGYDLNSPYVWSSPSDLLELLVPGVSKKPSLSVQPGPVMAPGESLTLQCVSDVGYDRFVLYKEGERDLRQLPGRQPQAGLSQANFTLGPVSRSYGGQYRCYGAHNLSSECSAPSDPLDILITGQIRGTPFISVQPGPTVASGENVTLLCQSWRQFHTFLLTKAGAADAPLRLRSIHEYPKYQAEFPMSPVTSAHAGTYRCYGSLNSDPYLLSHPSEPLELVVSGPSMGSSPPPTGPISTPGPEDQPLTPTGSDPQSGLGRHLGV

Biological target: T1, human sema4A (human) (UniProt Q9H3S1)
T1 sequence (looked up): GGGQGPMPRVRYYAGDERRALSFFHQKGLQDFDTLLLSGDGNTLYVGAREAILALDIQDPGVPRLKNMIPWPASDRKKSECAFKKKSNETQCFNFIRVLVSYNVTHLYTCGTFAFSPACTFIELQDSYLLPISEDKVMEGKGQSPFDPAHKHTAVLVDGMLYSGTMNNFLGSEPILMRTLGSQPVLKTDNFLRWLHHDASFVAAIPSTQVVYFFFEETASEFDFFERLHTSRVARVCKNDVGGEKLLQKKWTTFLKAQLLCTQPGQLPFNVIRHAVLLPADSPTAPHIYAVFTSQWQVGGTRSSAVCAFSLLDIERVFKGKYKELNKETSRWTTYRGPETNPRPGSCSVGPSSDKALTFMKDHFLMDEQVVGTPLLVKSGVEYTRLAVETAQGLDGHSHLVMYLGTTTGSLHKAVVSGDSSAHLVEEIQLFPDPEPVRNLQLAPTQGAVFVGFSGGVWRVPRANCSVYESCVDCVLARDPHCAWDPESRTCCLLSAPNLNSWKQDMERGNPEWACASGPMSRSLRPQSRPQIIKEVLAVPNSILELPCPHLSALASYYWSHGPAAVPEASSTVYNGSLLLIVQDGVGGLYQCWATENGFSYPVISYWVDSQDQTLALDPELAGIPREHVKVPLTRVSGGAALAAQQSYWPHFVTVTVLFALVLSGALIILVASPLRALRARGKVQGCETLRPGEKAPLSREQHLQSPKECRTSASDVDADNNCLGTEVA
Assay: binding to sema4A transfected cell line (FIGS. 20A, 20B)

| Substance | binding |
| --- | --- |
| human T-cell immunoglobulin domain and human mucin domain 3 (hTIM-3) (from UniProt Q8TDQ0 22-200) (receptor) | binds |
| human immunoglobulin-like transcript-2 (hILT-2) (from UniProt Q8NHL6 24-458) (receptor) | binds |
| human immunoglobulin-like transcript-4 (hILT-4) (from UniProt Q8N423 22-460) (receptor) | binds |
